Data on two molecules can be found in patent US20260116957A1, “PHARMACEUTICAL COMPOSITION FOR AMELIORATING ACUTE LUNG INJURY AND ACUTE WORSENING OF PULMONARY FIBROSIS” (priority 2021, published 2026).

These are yes or no findings as the source states them, for the method shown. Binding can be weak; no strength is given.

The target of experiment [1] is recombinant transglycosylase 351 (Staphylococcus nepalensis strain CNDG). Description: Western blot of increasing amounts of recombinant transglycosylase 351, hybridoma supernatant 1:1000. A general note: In western blotting, separated proteins are transferred to a membrane and probed.
The target is the same in experiment [2]. Description: Western blot of transglycosylase 351 (FIG. 11b).

B1: Anticorisin monoclonal antibody clone 2A (antibody, V domains shown)
VH: EVKLVESGGGLVQPGNSLTLSCVASGFTFTNYGMHWIRQAPKKGLEWIAMIYYDSSKMSYADTVKGRFTISRDNSKNTLYLEMNSLRSEDTAMYYCAAEGFGTPFPYWGQGTLVTVSS
VL: DIVMTQTPSSRAVSAGEKVTMSCKSSQSLLYSENEKNYLAWYQQRPGQSPKLLIYWASTRESGVPDRFIGTGSGTDFTLTISSVQAEDLAVYYCQQYYHFPRTFGGGTRLELK
Take B1: the binding result in experiment [1] and in experiment [2] was “binds” throughout.

B2: Anticorisin monoclonal antibody clone 4A (antibody, V domains shown)
VH: EVQVLESGGGLVQPGNSLKLSCATSGFTFSTAWMYWYRQFPEKRLEWVARIKAKSNSYATDYTESVKGRFTISRDDSKGSIYLRMNNLKEEDTAIYYCASTDAFYFSHSYWGQGVLVTVSS
VL: DIVMTQTPSSQAVSAGEKVTMRCRSSQSLLYSENKKNYLAWYQQKPGRSPKLLIYWASTGESGVPDRFIGSGSGTDFTLTISSVQAEDLAVYYCQQYYNFPLTFGSGTKLEIK
In the case of B2, the binding result in experiment [1] and in experiment [2] was “binds” each time.
